Test results published in patent EP4785956A2.
Results are given in words; binding and its absence hold for the method and conditions named. Some entries that bind do so weakly or less than the wild type.

The chains behind the UniProt entries cited, without tags or fusion partners. Where a name states a change or a piece, a line headed by the entry shows the natural chain unless it says otherwise.
UniProt P01031: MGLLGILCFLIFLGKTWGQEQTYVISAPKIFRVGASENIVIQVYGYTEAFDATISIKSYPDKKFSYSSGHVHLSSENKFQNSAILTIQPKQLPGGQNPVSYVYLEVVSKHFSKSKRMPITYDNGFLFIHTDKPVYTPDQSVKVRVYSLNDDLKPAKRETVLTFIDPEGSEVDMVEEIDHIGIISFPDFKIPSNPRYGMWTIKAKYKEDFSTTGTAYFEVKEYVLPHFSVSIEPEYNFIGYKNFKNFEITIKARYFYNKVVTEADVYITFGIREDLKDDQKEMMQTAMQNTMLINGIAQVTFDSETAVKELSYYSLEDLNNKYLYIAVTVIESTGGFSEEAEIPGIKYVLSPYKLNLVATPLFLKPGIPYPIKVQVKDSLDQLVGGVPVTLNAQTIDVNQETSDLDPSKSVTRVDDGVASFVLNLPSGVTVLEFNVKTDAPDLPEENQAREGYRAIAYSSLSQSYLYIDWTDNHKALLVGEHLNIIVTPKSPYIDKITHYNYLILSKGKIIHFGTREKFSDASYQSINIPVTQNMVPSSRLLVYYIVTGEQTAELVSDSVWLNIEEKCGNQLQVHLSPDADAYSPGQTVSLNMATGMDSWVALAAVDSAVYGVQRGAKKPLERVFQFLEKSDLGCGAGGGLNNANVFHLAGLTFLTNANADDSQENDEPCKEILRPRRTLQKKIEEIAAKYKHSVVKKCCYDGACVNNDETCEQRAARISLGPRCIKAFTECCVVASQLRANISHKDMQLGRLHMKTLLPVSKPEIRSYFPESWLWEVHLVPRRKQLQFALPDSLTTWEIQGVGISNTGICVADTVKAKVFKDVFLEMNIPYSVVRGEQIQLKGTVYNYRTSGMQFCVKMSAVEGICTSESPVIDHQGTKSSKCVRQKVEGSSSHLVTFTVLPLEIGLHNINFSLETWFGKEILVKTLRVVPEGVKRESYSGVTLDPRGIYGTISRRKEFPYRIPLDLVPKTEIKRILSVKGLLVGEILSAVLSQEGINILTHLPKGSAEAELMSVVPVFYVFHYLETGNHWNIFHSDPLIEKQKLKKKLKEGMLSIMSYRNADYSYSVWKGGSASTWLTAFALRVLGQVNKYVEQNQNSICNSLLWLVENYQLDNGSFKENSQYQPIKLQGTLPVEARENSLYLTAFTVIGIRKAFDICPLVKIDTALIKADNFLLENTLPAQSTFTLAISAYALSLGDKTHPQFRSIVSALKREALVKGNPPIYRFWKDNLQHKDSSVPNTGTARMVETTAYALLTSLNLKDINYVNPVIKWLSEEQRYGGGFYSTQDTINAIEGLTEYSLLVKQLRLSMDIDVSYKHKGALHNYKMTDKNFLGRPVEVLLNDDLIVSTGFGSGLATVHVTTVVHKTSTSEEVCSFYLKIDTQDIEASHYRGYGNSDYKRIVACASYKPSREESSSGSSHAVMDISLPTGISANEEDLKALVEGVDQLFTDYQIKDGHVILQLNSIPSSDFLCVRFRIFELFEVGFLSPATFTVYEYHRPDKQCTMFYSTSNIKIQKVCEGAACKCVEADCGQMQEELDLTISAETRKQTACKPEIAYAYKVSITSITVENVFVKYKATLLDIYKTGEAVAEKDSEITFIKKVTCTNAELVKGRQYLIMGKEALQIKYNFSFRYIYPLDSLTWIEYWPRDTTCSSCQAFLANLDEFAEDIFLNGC

Key:
[1] = target: recombinant human C5 (human) (UniProt P01031); assay: Western blot
[2] = target: human C5 point mutant E48A (human) (UniProt P01031); assay: Western blot, C5 in FS293 culture medium, reducing SDS-PAGE
[3] = target: recombinant human C5 (human) (UniProt P01031); assay: as above
[4] = target: human C5 point mutant K109A (human) (UniProt P01031); assay: as above

Row | Binder | binding [1] | binding [2] | binding [3] | binding [4]
1 | CFA0305 (antibody, V domains shown) VH: QSLEESGGDLVKPGASLAVTCTASGFSSSSSYYMCWVRQAPGKGLEWIGCIYTGSGATYYASWAKGRFTISKTSSTTVTLQMTSLTVADTATYFCASDGGYVTPTHAMYLWGPGTLVTVSS VL: DVVMTQTPASVSAAVGGTVTIKCQASQNIGSDLAWYQQKPGQPPRLLIYGASKLASGVSSRFSGSGSGKEFTLTISDLECADAVTYYCQCTFVGSSYGNAFGGGTEVVVK | binds | binds | binds | 
2 | CFA0307 (antibody, V domains shown) VH: QSLEESGGGLVKPGASLTLTCKASGIDFSNFYYICWVRQAPGKGLDLIACIYTVSGYTYYASWAKGRLTISKTSSTTVTLQMTSLTAADTATYFCARDLHAGITNLWGPGTLVTVSS VL: AIEMTQTPFSVSAAVGGTVTIKCQASQNIYSNLAWYQQKPGQRPKLLIYGASNLESGVPSRFKGSGSGTEYTLTISDLECADAATYYCLQGYSYSNVDDAFGGGTEVVVK |  |  | binds | 
3 | CFA0366 (antibody, V domains shown) VH: QSLEESGGDLVKPGASLSLTCTAAGLDFSSSYYMCWVRQAPGKGLEWIACIYAGSSGIIYYANWAKGRFTISRPSSTTVTLQMTSLTAADTATYFCATYPTYGDGGHAFNLWGPGTLVTVSS VL: AQVLTQTPSSVSAAVGGTVTINCQSSQSVYSSDYLSWYQQKPGQPPKLLIYEASKLASGVPPRFSGSGSGTQFTLTISGVQCDDAATYYCQGTYYSSGWYFAFGGGTEVVVK |  |  | binds | 
4 | CFA0501 (antibody, V domains shown) VH: QSVEESGGRLVTPGTPLTLTCTASGFSLSSYYMNWVRQAPGKGLEWIGMIYGSGATYYASWAKGRFTISKTSSTTVDLKMTSLTTEDTATYFCARQIYSGDNNDNFWGPGTLVTVSS VL: AYDMTQTPASVEVAVGGTVTINCQASESISNWLAWYQQKPGQRPKLLIYRASTLASGVSSRFKGSGSGTQFTLTISGVECDDAATYYCQQDYSSSNVDNTFGGGTKVVVE |  |  | binds | 
5 | CFA0538 (antibody, V domains shown) VH: QSVEESGGRLVTPGTPLTLTCTASGFSLSSYYMNWVRQAPGKGLEWIGMIYGSGATYYASWAKGRFTISKTSSTTVDLKMTSLTTEDTATYFCARQIYSGDNNDNFWGPGTLVTVSS VL: AYDMTQTPASVEVAVGGTVTINCQASESISNWLAWYQQKPGQRPKLLIYRASTLASGVSSRFKGSGSGTQFTLTISGVECDDAATYYCQQDYSSSNVDNTFGGGTTVVVE |  |  | binds | 
6 | CFA0599 (antibody, V domains shown) VH: QSVEESGGRLVTPGTPLTLTCTVSGLSLSDNTMTWVRQAPGKGLEWIGIISFGGDAYYASWAKGRFPISKTSTTVDLRITSPTTEDTATYFCARVGAGNIFWYFDLWGPGTLVTVSS VL: AYDMTQTPASVEVSVGGTVTIKCQASESIYSALAWYQQKPGQPPKLLIYSASTLASGVPSRFKGSGSGTEYTLTISDLECADAATYYCQQYYSSTNVHNSFGGGTTVVVE |  |  | binds | binds
7 | CFA0666 (antibody, V domains shown) VH: QSVEESGGRLVTPGTPLTLTCTVSGFSLSTYAMGWVRQAPGKGLEWIGTIDTGDNSFYANWAKGRFTISKTSTTVDLKITSPTAEDTATYFCARNDGSVYNLFNLWGPGTLVTVSS VL: DVVMTQTPASVSAAVGGTVTIKCQASENIYSALSWYQQKPGLRPRLLIYYASTLASGVPSRFKGSRSGTEFTLTISDLECADAATYYCQQYYDINSVDNTFGGGTKVVVE |  |  | binds | binds
8 | CFA0672 (antibody, V domains shown) VH: QSVEESGGRLVTPGTPLTLTCTASGFSLSGNAINWVRQAPGKGLEWIGCIYTGSDTTYYATWAKGRFTISKTSTTVDLKIASPTTEDTATYFCARGSGLWGPGTLVTVSS VL: DVVMTQTPASVSAPVGGTVTIKCQASQNIYSLLAWYQQKPGQPPKLLIYHTSDLASGVPSRFRGSGSGTEFTLTISDLECADAATYYCQCTAYGSSDVGGTFGGGTTVVVE |  |  | binds | binds
9 | CFA0675 (antibody, V domains shown) VH: QSVEESGGRLVTPGTPLTLTCTVSGFSLSTYAMGWVRQAPGKGLEWIGTIDTGDNSFYANWAKGRFTISRTSTTVDLKITSPTAEDTATYFCARNDGSVYNLFNLWGPGTLVTVSS VL: DVVMTQTPASVSAAVGGTVTIKCQASENIYSALSWYQQKPGLRPRLLIYYASTLASGVPSRFKGSRSGTEFTLTISDLECADAASYYCQQYYDINSVDNTFGGGTKVVVE |  | binds | binds | binds
